Results on one compound are retold here after US6302119A, “Low odor permanent waving compositions containing a disulfide” (priority 1999, dated 2001).

SMILES strings stand for the structures.

This experiment is described as follows: Processing and post-perm odor with water-soluble disulfides.

For `CC(C)(CO)[C@@H](O)C(=O)NCCC(=O)NCCSSCCNC(=O)CCNC(=O)[C@H](O)C(C)(C)CO` [pantethine], the “odor reduction results” value is reported as “acceptable results have been obtained”.
